Laboratory results published in PubChem BioAssay AID493014 (National Center for Advancing Translational Sciences (NCATS), 2011).
The whole screen tested about 340,000 compounds, of which about 170 (0.05%) were called active. This list was built around the results that the source calls inconclusive (neither active nor inactive); the mix of calls is not that of the screen. The call rests on the fitted dose curve; in most records, active means well fitted inhibition curve with a large enough effect in the signal ratio, with a control signal flat (not every such curve was filed as active); inconclusive means small, poorly fitted or top-dose-only effect, or effect the other way, or a change in a side signal; inactive means flat fitted curve, though single readings scatter; the % refers to the signal ratio. Potencies beside an inconclusive call are fits to weak or partial responses and may not hold up.

Assay: qHTS Assay to Find Inhibitors of Chronic Active B-Cell Receptor Signaling;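 on activity change, negative = inhibition: plate controls were basal doxycycline-induced cells for no effect and cells given 10 µM MG132 for full effect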
Conditions: ABC-DLBCL IkBa-CBG/CBR reporter, luminescence ratio (green luciferase fused to IkBa over red control in TMD8 lymphoma cells), 4 h; activity change, negative = inhibition: at 46.1 µM (top of the series) unless noted
How it was run: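 Cell line TMD8 (human ABC DLBCL), stably expressing tet-inducible CBG68-IkBa fusion and CBR; IMDM/0.5% FBS; cpd up to 46 uM; dox induction, 4 h, 37C/5% CO2; dual luminescence; green/red ratio; MG132 control.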
Potency means the concentration at half of the fitted maximal effect.

Row | SMILES | Potency | activity change, negative = inhibition
1 | CC(=NNC(=O)c1cccs1)c1ccc2c(c1)OCCO2 | inconclusive: 20.6 µM [falling, single point] | 
2 | CCCc1cc(=O)[nH]c2nnc(SC(C)CC)n12 (stereo not given) |  | inconclusive: -1.31%
3 | O=C(OCc1cc(Cl)ccc1OC(F)F)c1cc(S(=O)(=O)O)ccc1O |  | inconclusive: -10.2%
4 | CCCN(C(=O)c1c(CC)noc1C)c1c(N)n(Cc2ccccc2)c(=O)[nH]c1=O |  | inactive: -0.0429%
5 | Cc1cccc(-c2nc(NCCCN3CCOCC3)c3ccccc3n2)c1 |  | inconclusive: 24.4%
6 | Cc1ncc(C[n+]2csc(CCOC(=O)CC3C4CC5CC(C4)CC3C5)c2C)c(N)n1 (stereo not given) |  | inactive: -3.25%
7 | O=C(N/N=C/c1cccc2ccccc12)c1ccccc1Cl | inconclusive: 14.1 µM [falling, partial curve] | 
8 | CCSc1nc2ccccc2n1C(=O)/C=C/c1ccc(OC)c(OC)c1 |  | inactive: -27.9%
9 | COc1ccc(Cl)cc1S(=O)(=O)N1CCC(O)(c2ccc(Cl)cc2)CC1 |  | inconclusive: 13.2%
10 | Oc1ccccc1/C=N/Nc1ccnc(SCc2ccccc2)n1 | inconclusive: 0.103 µM [falling, full curve, poor fit] | 
11 | Cc1cccc(-c2nc3cc(NC(=O)C4CCCO4)ccc3o2)c1 (stereo not given) |  | inconclusive: 10.4%
12 | C=CCn1c(COc2ccccc2C)nnc1SCC(=O)O |  | inconclusive: 18.9%
13 | C=CCn1c(SCC(=O)N2CC(=O)Nc3ccccc32)nc2scc(-c3ccccc3)c2c1=O |  | inconclusive: 3.06%
14 | COCCn1c(=O)c2c(nc3n2CCCN3Cc2ccccc2)n(C)c1=O |  | inconclusive: 6.05%
15 | O=C(CSc1n[nH]c(=O)[nH]c1=O)Nc1ccccc1C(=O)c1ccccc1 |  | inconclusive: -1.06%
16 | CCN1CCN(C(=S)NC(=O)/C=C/c2cccs2)CC1 |  | inconclusive: -16.3%
17 | O=C(N/N=C/c1ccoc1)c1ccc(Br)cc1 |  | inconclusive: -4.01%
18 | O=C(NNS(=O)(=O)c1ccc(F)cc1)C1CC(c2cccnc2)=NO1 (stereo not given) |  | inconclusive: 2.33%
19 | Cc1cccc(C(=O)OCC(=O)N(C)C(c2ccccc2)c2ccccc2)c1[N+](=O)[O-] |  | inconclusive: -6.97%
20 | CSc1nsc(SC)c1C(=O)NC(=O)Nc1cccnc1 |  | inactive: 6.05%
21 | O=C(N/N=C/c1ccc([N+](=O)[O-])cc1)c1cccc2cc[nH]c12 | inconclusive: 2.82 µM [falling, full curve] | 
22 | CSc1ccc(/C=C/C(=O)OCC(=O)N(C)CCC#N)cc1 |  | inactive: 3.45%
23 | COc1cccc(/C=C/C(=O)OCC(=O)N(C)CC(=O)Nc2ccccc2Cl)c1OC |  | inconclusive: -9.99%
24 | Cc1ccccc1NC(=O)c1ocnc1C | inconclusive: 25.9 µM [falling, single point] | 
25 | O=C(O)COCC(=O)N1CCCN(c2nccc(C(F)(F)F)n2)CC1 |  | inactive: 0.603%
26 | CC1CN(c2ncc(/C=N/NC(=O)c3ccccc3O)s2)CC(C)O1 (stereo not given) | inconclusive: 31.6 µM [falling, single point] | 
27 | CN(C)C(CNC(=O)c1cc(S(=O)(=O)N(C)Cc2ccccc2)ccc1Cl)c1ccco1 (stereo not given) |  | inactive: -1.09%

Entries above containing an NH in an aromatic ring:
Row | SMILES | Potency | activity change, negative = inhibition
2 | CCCc1cc(=O)[nH]c2nnc(SC(C)CC)n12 (stereo not given) |  | inconclusive: -1.31%
4 | CCCN(C(=O)c1c(CC)noc1C)c1c(N)n(Cc2ccccc2)c(=O)[nH]c1=O |  | inactive: -0.0429%
15 | O=C(CSc1n[nH]c(=O)[nH]c1=O)Nc1ccccc1C(=O)c1ccccc1 |  | inconclusive: -1.06%
21 | O=C(N/N=C/c1ccc([N+](=O)[O-])cc1)c1cccc2cc[nH]c12 | inconclusive: 2.82 µM [falling, full curve] | 

(listing goes on)

Row | SMILES | Potency | activity change, negative = inhibition
28 | O=C(NC12CC3CC(CC(C3)C1)C2)c1ccc(N2CCNCC2)c([N+](=O)[O-])c1 |  | inconclusive: 7.73%
29 | Cc1nc(N2CCCCC2C)c2c(C)c(C(=O)Nc3cccc(C(F)(F)F)c3)sc2n1 (stereo not given) |  | inactive: 14.5%
30 | CC1=C(C)CS(=O)N(c2ccc(S(N)(=O)=O)cc2)C1 (stereo not given) | inconclusive: 25.1 µM [falling, partial curve, poor fit] | 
31 | Cc1ccc(C2CCN(C(=O)Nc3ccccc3)C2)cc1 (stereo not given) | inconclusive: 11.2 µM [falling, partial curve, poor fit] | 
32 | Cc1nc2nc(CSc3ccc(Cl)cc3)cc(=O)n2[nH]1 | inconclusive: 32.6 µM [falling, partial curve, poor fit] | 
33 | Cc1ccc(NC(=O)N2CCCC(c3ccccc3)C2)cc1 (stereo not given) |  | inactive: -2.95%
34 | CC(C)[C@H](NC(=O)c1ccco1)C(=O)OCC(=O)c1ccc(Br)s1 |  | inconclusive: 6.07%
35 | CCOc1ccc2c(c1)c(N=NC(=N)N)c(O)n2C |  | inconclusive: -2.27%
37 | COc1ccc(C(=O)Nc2nnc(-c3ccco3)s2)cc1 | inconclusive: 2.06 µM [falling, partial curve, poor fit] | 
38 | Nc1cc2nc3ccccc3oc-2cc1=O |  | inconclusive: -19.8%
39 | Cc1ccnc(NC(=O)CCc2c[nH]c3ccccc23)c1 |  | inconclusive: -0.577%
40 | CC1CCN(S(=O)(=O)c2ccc(Cl)cc2)CC1 |  | inconclusive: 1.05%
41 | Cc1ccc(NC(=O)Cn2c(O)c(N=NC(N)=S)c3ccccc32)cc1 | inconclusive: 35.5 µM [falling, partial curve, poor fit] | 
42 | O=[N+]([O-])c1cccc(N/N=C/c2cccc3ccccc23)c1 | inconclusive: 2.59 µM [rising, partial curve] | 
43 | COc1ccc(CCNC(=O)c2nnn(-c3ccc4c(c3)OCCO4)c2N)cc1OC |  | inconclusive: -0.202%
44 | CN(CC(=O)NC1CCN(Cc2ccccc2)CC1)S(=O)(=O)c1ccc(Cl)s1 |  | inactive: 3.04%
45 | COC(=O)c1ccc(NC(=O)c2cc3c(CO)cnc(C)c3oc2=Nc2cccc(C(N)=O)c2)cc1 |  | inconclusive: -6.02%
46 | O/N=C/c1ccc2ccccc2c1 |  | inconclusive: -64.3%
47 | COc1ccc(-c2cc(=O)oc3cc(OC(C)C(=O)Nc4ccc(CN5CCOCC5)cc4)ccc23)cc1 (stereo not given) |  | inactive: -12.9%
48 | Cc1cc(Cl)ccc1NC(=O)CSc1n[nH]c(N)n1 |  | inconclusive: -0.554%
49 | COc1ccccc1CN1CCNC(=O)C1CC(=O)NCC1CCOCC1 (stereo not given) |  | inconclusive: 8.96%
50 | CCC(C)C(=O)Nc1cc([N+](=O)[O-])ccc1Cl (stereo not given) |  | inconclusive: 0.142%
51 | CCCC/C=C/C(NC(=O)CCc1ccccc1)c1ccccc1 (stereo not given) |  | inactive: 2.7%
52 | O=C(NCc1ccco1)c1ccc(Cn2c(=O)c3ccccc3n(Cc3cccc(Cl)c3)c2=O)cc1 |  | inconclusive: 0.73%
53 | Cc1c(C(=O)O)cccc1-n1c(C)cc(/C=N/Nc2ccc([N+](=O)[O-])cn2)c1C |  | inactive: 8.19%
54 | COc1ccccc1Oc1nc2ccccn2c(=O)c1/C=C(\C#N)C(=O)Nc1c(C)n(C)n(-c2ccccc2)c1=O | inconclusive: 35.5 µM [falling, single point] | 

Row | SMILES | Potency | activity change, negative = inhibition
55 | CCC1(C)Cc2c(sc3nc(SC)[nH]c(=S)c23)CO1 (stereo not given) |  | inconclusive: 3.25%
56 | CCn1c(C)c(CCC(=O)O)c(=O)n2nc(-c3ccccc3OC)cc12 |  | inconclusive: 6.18%
57 | O=C(CCCN1C(=O)C(c2ccccc2)Oc2cccnc21)Nc1cccc(F)c1 (stereo not given) |  | inconclusive: -0.141%
58 | CCN(CC)CCn1c(C)nc2ccccc21 |  | inactive: -5.81%
59 | COc1ccccc1N1CCN(C(=O)CN(c2ccccc2OC)S(=O)(=O)c2ccccc2)CC1 |  | inconclusive: 3.48%
60 | O=C1CSC(=S)N1/N=C/c1cccc(C(F)(F)F)c1 |  | inconclusive: 8.03%
61 | C=CCN=C1S/C(=C/c2cccc([N+](=O)[O-])c2)C(=O)N1CC=C |  | inactive: 3.98%
62 | CN(Cc1cn[nH]c1-c1ccc(-c2ccccc2)cc1)CC1CCOCC1 |  | inconclusive: -0.256%
63 | CCCCc1ccc(/C=C2\C(=O)c3ccccc3C(O)=C2C(=O)OCC)cc1 | inconclusive: 20.6 µM [cytotoxic, single point] | 
64 | O=C(Nc1cc(S(=O)(=O)Nc2ccccc2Cl)ccc1O)c1ccc(F)cc1F |  | inconclusive: -0.306%
65 | COc1ccc(N2CC(NC(=O)/C=C\c3ccccc3)CC2=O)cc1 (stereo not given) |  | inactive: -2.46%
66 | Cc1cccc(C(=O)NNC(=O)c2c(O)c3ccccc3n(C)c2=O)c1 | inconclusive: 11.2 µM [falling, partial curve, poor fit] | 
67 | O=C(Nc1ccc(F)cc1)N1CCC(c2nc3c(nnn3Cc3ccccc3Cl)c(=O)[nH]2)CC1 |  | inconclusive: -1.32%
68 | CC(C)N(C(C)C)S(=O)(=O)c1ccc(NN)nc1 |  | inconclusive: 5.56%
69 | Cc1nn(-c2ccccc2)c(C)c1/C=C/C(=O)OC(C)C(=O)Nc1ncc(Cl)cc1Cl (stereo not given) |  | inconclusive: 14.3%
70 | CCOC(=O)c1c(C)n(-c2ccccc2)c2ccc(O)c(CN(C)C)c12 | inconclusive: 35.5 µM [falling, single point] | 
71 | CS(=O)(=O)Nc1cccc(C2=NN(C(=O)c3cccc(F)c3)C(c3cccs3)C2)c1 (stereo not given) | inconclusive: 22.4 µM [falling, single point] | 
72 | Cc1cc(C)nc(SCc2ccc(C(=O)O)o2)n1 |  | inconclusive: -17.6%
73 | O=C(Nc1ccc2c(c1)OCO2)c1cc(-c2ccc(O)cc2)on1 | inconclusive: 10 µM [falling, partial curve] | 
74 | COc1cc(C(c2c(C)[nH][nH]c2=O)c2c(C)[nH][nH]c2=O)cc(Br)c1OC |  | inconclusive: -4.85%
75 | CN(Cc1ccccc1)C(=O)COC(=O)c1ccc(Cl)c(N)c1 | inconclusive: 9.2 µM [falling, partial curve, poor fit] | 
76 | Cc1ccc(S(=O)(=O)NC2CC(=O)N(c3ccc4c(c3)OCCO4)C2)cc1 (stereo not given) |  | inconclusive: -3.6%
77 | NC(=O)CSc1nnc(-c2ccc(S(=O)(=O)N3CCOCC3)cc2)n1Cc1ccccc1 |  | inconclusive: -3.13%
78 | COC(=O)c1c(NC(=O)CN2CCN(c3ccccc3Cl)CC2)sc(C)c1C |  | inconclusive: -27.1%
79 | C=C(C)Cn1c(CCCNC(=O)C(C)(C)C)nc2ccccc21 |  | inconclusive: -14.9%
80 | CCC(=O)c1ccc(OCC(O)CN2C(=O)NC(C)(C)C2=O)cc1 (stereo not given) |  | inconclusive: 14.7%
